Results on 33 substances are retold here after patent US7018615B2, “Method of identifying molecules that home to a selected organ in vivo” (The Burnham Institute, priority 1995, dated 2006).

Where “and” joins values, the source holds several entries; their conditions need not be identical. Identical values can stand only once.

One series relates to brain. The experiment in a line: In vivo panning of phage peptide display libraries, brain as selected organ, kidney as control organ. As to conditions: 73 cloned phage recovered from brain, second and third rounds of in vivo panning. Also noted: species or system mice. The protocol: (§1) A mixture of phage libraries containing 1×10^14 TU was diluted in 200 μl DMEM and injected into the tail vein of anesthetized BALB\c mice (2 month old females; Jackson Laboratories; Bar Harbor Me.); Avertin (0.015 ml/g) was used as anesthetic. After 1-4 minutes, mice were snap frozen in liquid nitrogen. To recover the phage, carcasses were partially thawed at room temperature for 1 hr, organs were collected and weighed, then were ground in 1 ml DMEM-PI (DMEM containing protease inhibitors (PI); phenylmethylsulfonyl fluoride (PMSF; 1 mM), aprotinin (20 μg/ml), leupeptin (1 μg/ml)).
(§2) Organ samples were washed 3 times with ice cold DMEM-PI containing 1% bovine serum albumin (BSA), then directly incubated with 1 ml K91-kan bacteria for 1 hr. Ten ml NZY medium containing 0.2 μg/ml tetracycline (NZY/tet) was added to the bacterial culture, the mixture was incubated in a 37° C. shaker for 1 hr, then 200 μl aliquots were plated in agar plates containing 40 μg/ml tetracycline (tet/agar).
(§3) Individual colonies containing phage recovered from brain or kidney-were grown for 16 hr in 5 ml NZY/tet. The bacterial cultures obtained from the individual colonies were pooled and the amplified eluates were injected into mice as described above for a second round of in vivo panning. A third round of panning also was performed. Phage DNA was purified from individual bacterial colonies obtained from the second and the third round of in vivo panning and the DNA sequences encoding the peptides expressed by selected phage were determined (see Koivunen et al., supra, 1994b).
Three rounds of in vivo panning in mice were performed. Kidney was used as a control organ. Mice were injected with two different mixtures of phage libraries. The first mixture contained libraries encoding CX9 (SEQ ID NO: 39), CX5C (SEQ ID NO: 36), CX6C (SEQ ID NO: 37) and CX7C (SEQ ID NO: 38) peptides (CX5-7/CX9 mixture; SEQ ID NOS: 36-39). The second mixture contained libraries encoding X2CX14CX2 (SEQ ID NO: 40) and X2CX18 (SEQ ID NO: 41) peptides (X2CX18/X2CX14CX2 mixture; SEQ ID NOS: 40 and 41).
The phage library mixtures were administered to mice via tail vein injection. Phage input was 1×10^16 TU of the CX5-7/CX9 (SEQ ID NOS: 36-39) mixture or 1×10^14 TU of the X2CX18/X2CX14CX2 (SEQ ID NOS: 40 and 41) mixture. Phage were recovered from the brains of the injected mice, the recovered phage were amplified in vitro, then a second and a third round of in vivo panning was performed. During the second and third rounds of panning, phage were recovered from brain and from kidney and the number of TU from each organ was compared. […] Following administration of the X2CX18/X2CX14CX2 (SEQ ID NOS: 40 and 41) mixture, an 11× and 8× enrichment of phage homing to the brain as compared to kidney occurred during the second and third rounds of panning, respectively. Thus, substantial enrichment of phage binding to the brain was observed following the second and third rounds of in vivo panning.
The amino acid sequences were determined for the inserts present in 73 cloned phage that were recovered from brain during the second and third rounds of in vivo panning. Peptides containing an SRL motif predominated (36% of the clones sequenced; see SEQ ID NOS: 1, 3 and 5), followed by peptides containing the VLR motif (20.5% of the clones; see SEQ ID NOS: 4 and 16) and the peptide CENWWGDVC (SEQ ID NO: 2; 19% of the clones; see Table 1). […] Nine other sequences appeared only one time each and were not characterized further.

For another series, the system named is kidney. Nature of the series: In vivo panning of phage peptide display libraries, kidney as selected organ, brain as control organ. Also noted: species or system mice. As to conditions: for % PHAGE (of the clones sequenced): 48 cloned phage that homed to kidney. On the procedure: as §1, §2, §3
The same methodology used to isolate phage expressing brain homing peptides was used to isolate phage expressing peptides that home to kidney. In these experiments, brain was used as the control organ. A mixture of the CX5C (SEQ ID NO: 36) and the CX6C (SEQ ID NO: 37) libraries was administered as described above. Homing of phage to the kidney was obtained and an approximately 3× to 7× enrichment of phage homing to kidney was observed following a second round of in vivo panning.
The amino acid sequences were determined for the inserts in 48 cloned phage that homed to kidney. The peptides expressed by these phage were represented by two predominant sequences, CLPVASC (SEQ ID NO: 21; 46% of the clones sequenced) and CGAREMC (SEQ ID NO: 22; 17% of the clones; see Table 2). In addition, the peptide CKGRSSAC (SEQ ID NO: 23) appeared three times and three other peptides were present twice each.

Turning to “CANAQSHC (displayed on phage) [peptide from phage recovered from brain]”, in the series on brain, the “% PHAGE (of the clones sequenced)” value was determined as 1.4%.

Regarding CENWWGDVC (displayed on phage), in the series with brain, the “% PHAGE (of the clones sequenced)” value is 19% and 19.2%. For the substance “CETLPAC (displayed on phage) [peptide from phage recovered from brain]”, the “% PHAGE (of the clones sequenced)” value in the series with brain was found to be 1.4%.

For the substance “CFVGHDLC (displayed on phage) [peptide from phage recovered from kidney]”, the “% PHAGE (of the clones sequenced)” value in the series with kidney came to 2.1%. Regarding CGAREMC (displayed on phage), the “% PHAGE (of the clones sequenced)” value with kidney was 17% and 16.7%. In the case of “CGNPSYRC (displayed on phage) [peptide from phage recovered from brain]”, the “% PHAGE (of the clones sequenced)” value with brain was 1.4%. On to “CGRSLDAC (displayed on phage) [peptide from phage recovered from brain]”, for which the “% PHAGE (of the clones sequenced)” value in the series on brain was found to be 1.4%.

As to “CGVRLGC (displayed on phage) [peptide from phage recovered from brain]”, in the series on brain, the “% PHAGE (of the clones sequenced)” value is listed as 4.1%. Take “CKDWGRIC (displayed on phage) [peptide from phage recovered from brain]”: the “% PHAGE (of the clones sequenced)” value in the series with brain turned out to be 2.8%.

Consider CKGRSSAC (displayed on phage), for which the “% PHAGE (of the clones sequenced)” value with kidney was 6.2%.

Take “CKLLSGVC (displayed on phage) [peptide from phage recovered from kidney]”: the “% PHAGE (of the clones sequenced)” value in the series on kidney is given as 2.1%.

As to “CKLMGEC (displayed on phage) [peptide from phage recovered from kidney]”, the “% PHAGE (of the clones sequenced)” value in the series on kidney was 2.1%. “CLDWGRIC (displayed on phage) [peptide from phage recovered from brain]”: the “% PHAGE (of the clones sequenced)” value with brain was 2.8%. Turning to “CLGRSSVC (displayed on phage) [peptide from phage recovered from kidney]”, in the series with kidney, the “% PHAGE (of the clones sequenced)” value stood at 4.2%. Still for that read-out and setting: the figure for “CLMGVHC (displayed on phage) [peptide from phage recovered from kidney]” is 2.1%. In the case of CLPVASC (displayed on phage), the “% PHAGE (of the clones sequenced)” value in the series on kidney was 46% and 45.8%. Also, the “fraction of the sequenced kidney homing peptides having the sequence” value with kidney (kidney homing peptides that were sequenced) is recorded as “half”. “CLSSRLDAC (displayed on phage or cyclic) [also synthesized as cyclic peptide]”: the “% PHAGE (of the clones sequenced)” value in the series on brain is 8.2%. As to “CMGRWRLC (displayed on phage) [peptide from phage recovered from kidney]”, the “% PHAGE (of the clones sequenced)” value in the series with kidney is 2.1%. With CNSRLHLRC (displayed on phage), the “% PHAGE (of the clones sequenced)” value in the series with brain was found to be 21.9%. On to “CNSRLQLRC (displayed on phage) [peptide from phage recovered from brain]”, for which the “% PHAGE (of the clones sequenced)” value with brain was found to be 5.5%.

In the case of “CRCLNVC (displayed on phage) [peptide from phage recovered from kidney]”, the “% PHAGE (of the clones sequenced)” value in the series on kidney was found to be 2.1%. Turning to “CRHWFDVVC (displayed on phage) [peptide from phage recovered from brain]”, the “% PHAGE (of the clones sequenced)” value in the series on brain was determined as 1.4%.

On to “CRRFQDC (displayed on phage) [peptide from phage recovered from kidney]”, for which, in the series on kidney, the “% PHAGE (of the clones sequenced)” value is recorded as 2.1%.

For the substance “CRTGTLFC (displayed on phage) [peptide from phage recovered from brain]”, the “% PHAGE (of the clones sequenced)” value in the series on brain is on record as 1.4%. As for “CTRITESC (displayed on phage) [peptide from phage recovered from brain]”, the “% PHAGE (of the clones sequenced)” value with brain worked out at 2.8%. As to “CTSPGGSC (displayed on phage) [peptide from phage recovered from kidney]”, in the series with kidney, the “% PHAGE (of the clones sequenced)” value worked out at 4.2%. For the substance “CVAWLNC (displayed on phage) [peptide from phage recovered from kidney]”, in the series with kidney, the “% PHAGE (of the clones sequenced)” value was determined as 2.1%.

With “CVGECGGC (displayed on phage) [peptide from phage recovered from kidney]”, in the series with kidney, the “% PHAGE (of the clones sequenced)” value amounted to 2.1%.

Turning to “CVLRGGRC (displayed on phage) [peptide from phage recovered from brain]”, the “% PHAGE (of the clones sequenced)” value in the series with brain turned out to be 6.8%. On to “CWARAQGC (displayed on phage) [peptide from phage recovered from kidney]”, for which, in the series on kidney, the “% PHAGE (of the clones sequenced)” value stood at 4.2%. Take “LNCDYQGTNPATSVSVPCTV (displayed on phage) [peptide from phage recovered from brain]”: the “% PHAGE (of the clones sequenced)” value in the series on brain is reported as 1.4%. Consider “WRCVLREGPAGGCAWFNRHRL (displayed on phage)”, for which the “% PHAGE (of the clones sequenced)” value with brain worked out at 13.7%.

For “YPCGGEAVAGVSSVRTMCSE (displayed on phage) [peptide from phage recovered from brain]”, the “% PHAGE (of the clones sequenced)” value in the series on brain was 1.4%.
